The assay deals with T1, Atg3^FR (residues 86–159), the intrinsically disordered flexible region of yeast Atg3 (S. cerevisiae) (UniProt P40344).
T1 sequence: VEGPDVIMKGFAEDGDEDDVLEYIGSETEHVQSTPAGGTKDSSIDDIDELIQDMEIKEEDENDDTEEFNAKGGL
Kind of assay: NMR titration; 0.1 mM 15N-labeled Atg3^FR 86–159 (or its mutant) titrated with 0–500 or 0–625 µM unlabeled Atg3^∆FR; [15N,1H] TROSY; 25 °C, 20 mM MES pH 6.5, 100 mM NaCl, 10% D2O; both purified.

No constants are given. Whether binding was seen depends on the method and setting. Binding can be weak; no strength is given.

In the case of “Atg3^∆FR (yeast Atg3 lacking the flexible region) (from UniProt P40344) (enzyme)”, the binding entry was “binds”.

For the origin of these results see article PMC6689050, “A switch element in the autophagy E2 Atg3 mediates allosteric regulation across the lipidation cascade” (Nature Communications, 2019).
